Measurements reported in PubChem BioAssay AID1508588 (Peter MacCallum Cancer Centre, 2020)

Purpose: 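Which gene losses make BRAF-mutant melanoma cells more responsive to vemurafenib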 (primary screen)
System: human WM266.4 melanoma cells (BRAF V600 mutant)
Knock-down reagent: siRNA pool against human genes, 40 nM
Duration: 96 h from transfection to read-out
Treatment: vemurafenib 300 nM (about IC25), added 48 h after transfection, for 48 h; comparison arm got DMSO vehicle only
Detection: 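Ratios to non-targeting siRNA for cell gain, counted as DAPI nuclei after minus before drug and averaged over two replicates, and for absorbance-read medium lactate per cell; both binned into fold-change classes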
Scale: cell gain with vemurafenib: higher = more cell gain than with non-targeting siRNA; lactate per cell with vemurafenib: higher = more lactate made per cell
Active means: 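Enhancement is called by pairing each knock-down's vehicle-arm and drug-arm fold-change classes for viability or glycolysis; which class combinations qualify is not given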
Calls: active = enhances vemurafenib effect; inactive = no enhancement seen
This is one part, drawn at random, of about 18,000 deposited reagents. In the full data, 790 (4.4%) got an active call. 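Calls rest on a combination of fold-change classes in drug and vehicle arms, not all shown here.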 A number with no mark means an inactive call. A reagent listed more than once was tested more than once; the source does not tell the runs apart.

gene symbol | cell gain with vemurafenib | lactate per cell with vemurafenib
PAPOLB | 0.02 | 2.06
CYP4A11 | 0.58 (active) | 0.64
ARHGEF28 | 0.64 | 0.93
PLEKHS1 | 0 | 1.46
ADA2 | 0.28 | 1.19
INPP5K | 0.95 | 0.7
DSCR10 | 0.66 | 0.8
ERH | 0.18 | 0.2
C1QTNF9B | 1.27 | 0.99
PRPF18 | 0.34 | 1.7
CLEC4D | 0.16 (active) | 1.38
OR52A5 | 0.15 | 1.64
TMEM140 | 0.73 | 0.78
IL5RA | 1.11 | 0.88
ITGAM | 0.62 | 0.79
ABCA12 | 0.75 | 0.43
CT47A7 | 0.87 | 0.6
RASSF7 | 0.55 | 1.36
APOH | 0.55 | 1.78
NUDT2 | 0.26 | 0.62
SLC22A6 | 0.75 | 0.38
MMP2 | 0.86 | 0.55
NIPSNAP3B | 0.45 | 0.28
NUP205 | -0.05 | 2.14
PLOD3 | -0.09 | 2.93
POLR3E | 0.41 | 1.82
RNF150 | 0.98 | 0.74
RNF150 | 0.97 | 0.96
MYD88 | 0.58 | 1.02
CBX8 | 0.56 | 0.57
EIF2S2 | 0.19 | 1.69
MTPAP | 0.72 | 1.17
HEATR6 | 0.65 | 0.69
RALBP1 | 0.3 | 0.74
DGCR6L | -0.04 | 1.1
FJX1 | 0.55 | 0.72
INTS3 | 0.29 | 0.98
NOL9 | 0.48 | 0.9
ITSN1 | 0.3 | 0.35
GORASP1 | 0.47 | 1.3
TMEM37 | 0.93 | 0.8
TSLIG3B | 0.5 | 1.52
BTK | 0.31 (active) | 0.39
DYNC1H1 | 0.64 | 0.91
NOMO1 | 1.08 | 0.86
DCAF12L1 | 0.44 | 0.54
TBC1D15 | 0.77 | 1.4
SDC1 | 0.12 | 0.28
DOCK8 | 0.43 | 1.52
MAPK9 | 0.88 | 0.57
ATAD1 | 0.53 | 0.82
GFPT2 | 0.93 | 0.92
BARX2 | 0.39 | 1.58
SOX6 | 0.42 | 2.02
SIPA1L3 | 0.69 | 0.76
JAG1 | 0.39 | 0.76
LUZP2 | 0.81 | 1.46
TUT4 | 0.56 | 1.46
HM13 | 0.01 | 0.89
RAB5C | 0.68 | 0.88
MXD4 | 0.95 | 0.54
LY9 | 0.71 | 0.74
ADAMTS5 | 0.65 | 0.88
SNCAIP | 0.54 | 0.24
SMCP | 0.77 | 0.68
PDE3B | 0.74 | 0.5
FN3K | 0.79 | 0.97
CCNE2 | 0.99 | 0.9
OSER1 | 0.41 | 1.27
EAF1 | 0.26 | 1.01
AMOTL1 | 0.53 | 1.66
TPGS2 | 0.34 | 1.68
SGMS1 | 0.51 | 1.29
LZTS1 | -0.05 | 2.12
DIP2C | 0.81 | 1.16
NSD2 | 0.97 | 0.8
CPT1C | 0.43 | 1
HECTD3 | 1.17 | 0.26
CEP350 | 0.44 | 1.52
RPS20 | 0.02 | 1.4
IGFBP7 | 0.79 | 0.92
UGT1A9 | 0.07 | 0.76
HPS4 | 0.12 (active) | 1.17
ASPSCR1 | 0.85 | 0.5
GOLT1A | 0.74 | 1.15
NFE4 | 0.68 | 0.74
RICTOR | 0.33 | 0.78
CYP4F12 | 0.48 | 1.27
ANKRD50 | 0.17 (active) | 0.07
AGL | 0.36 | 1.4
PPA1 | -0.02 | 2.84
HPS5 | 1.16 | 0.69
CHD1L | 0.6 | 1.52
EPPIN | 0.41 (active) | 0.43
ARTN | 0.66 | 0.99
FDCSP | 0.8 | 0.26
FIBP | 0.92 | 0.94
MVB12B | 0.27 | 2.37
YKT6 | 0.53 | 1.18
ARMC7 | 1.08 | 0.96
CASZ1 | 0.85 | 1.15
NUTM1 | 0.59 | 0.95
RDX | 0.36 | 0.43
FGF8 | 0.79 | 0.62
TMEM108 | 0.59 | 0.86
CEMIP2 | 0.69 | 0.76
TYRO3 | 0.45 | 1.21

As entered above.
ADAMTS5, cell gain with vemurafenib = 0.65
Entry for TPGS2 under “lactate per cell with vemurafenib”: 1.68
For “lactate per cell with vemurafenib”, CYP4F12 reads 1.27
For “cell gain with vemurafenib”, IL5RA is entered as 1.11
Under “lactate per cell with vemurafenib”, SDC1 shows 0.28
Value of AGL under “cell gain with vemurafenib”: 0.36
